# Experimental data as given in publication PMC10352345.
# These are yes or no findings as the source states them, for the method shown. In cells and extracts the contact can be indirect. Binding calls can cover weak binding; strength is not graded here.
# Biological target: T1, KIM1 precipitated with anti-KIM1 in the DR5 domain mapping (human) (UniProt Q96D42)
# T1 sequence: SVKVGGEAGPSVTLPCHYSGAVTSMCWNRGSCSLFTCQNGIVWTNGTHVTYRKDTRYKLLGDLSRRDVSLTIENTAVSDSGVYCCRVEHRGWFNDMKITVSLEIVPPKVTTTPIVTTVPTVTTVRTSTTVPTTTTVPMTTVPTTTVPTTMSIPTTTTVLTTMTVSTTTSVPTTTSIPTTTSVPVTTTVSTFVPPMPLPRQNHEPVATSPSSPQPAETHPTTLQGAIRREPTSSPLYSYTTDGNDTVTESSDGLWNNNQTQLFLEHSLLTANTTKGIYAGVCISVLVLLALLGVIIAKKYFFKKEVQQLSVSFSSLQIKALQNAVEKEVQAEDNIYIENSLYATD
# Experiment: co-IP; IP with anti-KIM1 or non-specific IgG; WT and mutants of DR5-Flag detected with anti-Flag; cells not given
row,Substance,binding
1,Flag-tagged DR5 ΔCytD (human) (domain or fragment),binds
2,Flag-tagged DR5 ΔECD (human) (domain or fragment),no binding
3,Flag-tagged DR5 ΔTMH (human) (domain or fragment),binds
